Experimental findings from patent US20250320184A1 (SIRONAX LTD., priority 2022, published 2025) are described below.

Amino acid sequences for entries named in this document (tags omitted). Residues count along the entry.
UniProt Q6SZW1, 50-724 limits assumed: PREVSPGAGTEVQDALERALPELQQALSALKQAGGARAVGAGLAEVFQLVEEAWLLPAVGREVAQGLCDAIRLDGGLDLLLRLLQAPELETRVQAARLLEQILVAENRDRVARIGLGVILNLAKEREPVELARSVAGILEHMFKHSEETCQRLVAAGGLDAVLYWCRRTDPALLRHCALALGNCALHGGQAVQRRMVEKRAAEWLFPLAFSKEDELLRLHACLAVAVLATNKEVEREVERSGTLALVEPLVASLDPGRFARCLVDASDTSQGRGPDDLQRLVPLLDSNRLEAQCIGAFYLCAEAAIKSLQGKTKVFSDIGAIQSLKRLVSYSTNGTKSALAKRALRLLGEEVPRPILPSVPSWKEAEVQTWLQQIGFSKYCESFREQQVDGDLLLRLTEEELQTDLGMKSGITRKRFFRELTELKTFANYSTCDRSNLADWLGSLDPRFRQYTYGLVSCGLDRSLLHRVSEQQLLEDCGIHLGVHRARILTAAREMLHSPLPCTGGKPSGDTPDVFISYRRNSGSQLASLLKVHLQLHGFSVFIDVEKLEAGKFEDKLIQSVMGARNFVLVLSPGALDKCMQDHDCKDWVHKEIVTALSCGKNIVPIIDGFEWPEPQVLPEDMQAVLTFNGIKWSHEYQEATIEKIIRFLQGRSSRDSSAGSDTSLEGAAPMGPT

By pIC50 is commonly meant −log10 of the IC50, conventionally taken in molar units. Read a high pIC50 as a low IC50.

pIC50: −log10 of the molar value. Structures were worked out from names or drawings and are uncertain.

The test addresses SARM1 (50-724) (Homo sapiens, UniProt Q6SZW1). The experiment in a line: SARM1 (50-724) enzymatic assay. The following applies: SARM1 inhibitory activity; purified SARM1 (50-724) 2 nM, 200 μM NMN activator, 100 μM NAD+ substrate, LC-MS/MS.

For `Cc1ccc(NS(=O)(=O)c2cccc(F)c2C)cc1C(N)=O`, the negative-log IC50 (pIC50) was less than 6.00.
